Measurements from patent publication US20150232856A1, “TELOMERASE INHIBITORS FOR USE IN THERAPY” (AGENCY FOR SCIENCE, TECHNOLOGY AND RESEARCH, priority 2012, published 2015).
Results from cells or extracts need not show a direct contact. For some assays here: Negatives hold for the conditions tested. For some assays here: For at least one entry, the source does not settle the construct or the ends of the probe.

Chains of the proteins cited; added tags and fusions are not shown. Lines headed by an entry give the natural chain unless they say otherwise; changes in a name come on top.
UniProt O14746: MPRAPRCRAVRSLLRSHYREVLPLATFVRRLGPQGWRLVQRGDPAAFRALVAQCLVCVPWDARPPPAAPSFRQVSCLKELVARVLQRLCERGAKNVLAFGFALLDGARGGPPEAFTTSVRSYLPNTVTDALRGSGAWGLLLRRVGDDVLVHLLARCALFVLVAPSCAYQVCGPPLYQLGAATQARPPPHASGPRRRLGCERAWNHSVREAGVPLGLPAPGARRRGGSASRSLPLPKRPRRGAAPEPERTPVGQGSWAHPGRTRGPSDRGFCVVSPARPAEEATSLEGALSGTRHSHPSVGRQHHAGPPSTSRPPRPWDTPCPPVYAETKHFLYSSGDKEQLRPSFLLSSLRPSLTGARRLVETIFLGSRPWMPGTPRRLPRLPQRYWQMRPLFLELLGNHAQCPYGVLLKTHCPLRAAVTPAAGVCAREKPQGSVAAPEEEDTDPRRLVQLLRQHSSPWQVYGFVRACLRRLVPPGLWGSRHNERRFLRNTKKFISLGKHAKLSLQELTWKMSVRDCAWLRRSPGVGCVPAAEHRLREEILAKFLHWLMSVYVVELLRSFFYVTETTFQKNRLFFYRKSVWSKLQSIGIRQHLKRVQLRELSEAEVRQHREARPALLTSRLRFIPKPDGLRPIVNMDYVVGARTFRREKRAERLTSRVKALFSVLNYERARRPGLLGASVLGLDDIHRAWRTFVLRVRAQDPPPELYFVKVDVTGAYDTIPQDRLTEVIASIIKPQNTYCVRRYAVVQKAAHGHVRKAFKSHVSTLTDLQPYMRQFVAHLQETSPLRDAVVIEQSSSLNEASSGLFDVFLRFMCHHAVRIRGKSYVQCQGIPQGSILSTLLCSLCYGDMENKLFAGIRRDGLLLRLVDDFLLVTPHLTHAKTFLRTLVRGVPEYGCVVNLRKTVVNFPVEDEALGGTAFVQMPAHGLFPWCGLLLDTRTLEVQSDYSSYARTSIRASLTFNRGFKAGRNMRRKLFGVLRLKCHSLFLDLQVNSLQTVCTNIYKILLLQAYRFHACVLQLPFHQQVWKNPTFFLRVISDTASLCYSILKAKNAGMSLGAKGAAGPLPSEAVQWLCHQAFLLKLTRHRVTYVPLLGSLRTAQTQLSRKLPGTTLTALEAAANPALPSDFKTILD

How the values were obtained:
[1] = tested on: NF-kB p50/p65 (nuclear extract); experiment: EMSA; conditions: protein in an extract, label: radiolabel
[2] = biological target: hTERT (telomerase) (Homo sapiens) (UniProt O14746); experiment: EMSA; conditions: hTERT antibodies did not supershift; protein in an extract; label: radiolabel

Question: Does “ACTGGGAGGATTCCCAAGGGGTCAATTGGGAGA (double strand) [IL6A]” bind ([1]; TNFalpha-induced, reduced by hTERT ablation, p50 and p65 antibodies supershift)?
Answer: Result: binds

Question: Does “GCATGGGAATTTCCAACTCTGGGAATTCCAATCCTTGCTGGGAA (double strand) [TNFalphaA]” bind ([1]; A2780 cells, TNFalpha 30 min)?
Answer: Result: binds

Question: Does “TCAACAGAGGGGACTTTCCGAGAGGCC (double strand) [NFkB consensus probe]” bind ([1]; TNFalpha-induced, unaffected by hTERT levels, p50 and p65 antibodies supershift)?
Answer: Result: binds

Question: Does “TCAACAGAGGGGACTTTCCGAGAGGCC (double strand) [NFkB consensus probe]” bind [2]?
Answer: Result: no binding

Question: Does “TGACTCAGGTTTGCCCTGAGGGGATGGGCC (double strand) [IL8A]” bind ([1]; A2780 cells, TNFalpha 30 min)?
Answer: Result: binds
